Earlier results, collected in patent US20230364172A1, “MODULATION OF SOLUBILITY, PALATABILITY, ABSORPTION, AND BIOAVAILABILITY OF MITRAGYNA SPECIOSA-DERIVED COMPOUNDS FOR ORAL AND BUCCAL DELIVERY” (Syncotrance, LLC, priority 2022, published 2023).
Some entries share one result that the patent states for a list of compounds.

Details: quinine, berberine, promethazine, propranolol, thiamine, brucine, peptides; cited from earlier work

| Substance | suppression of bitterness of tested compounds |
| --- | --- |
| phosphatidyl inositol | up to 80% |
| phosphatidic acid | up to 80% |
